{"sequences": {"note": "Chains of the proteins cited; added tags and fusions are not shown. Residues count along the entry.", "UniProt P46531, residues 19-2555": "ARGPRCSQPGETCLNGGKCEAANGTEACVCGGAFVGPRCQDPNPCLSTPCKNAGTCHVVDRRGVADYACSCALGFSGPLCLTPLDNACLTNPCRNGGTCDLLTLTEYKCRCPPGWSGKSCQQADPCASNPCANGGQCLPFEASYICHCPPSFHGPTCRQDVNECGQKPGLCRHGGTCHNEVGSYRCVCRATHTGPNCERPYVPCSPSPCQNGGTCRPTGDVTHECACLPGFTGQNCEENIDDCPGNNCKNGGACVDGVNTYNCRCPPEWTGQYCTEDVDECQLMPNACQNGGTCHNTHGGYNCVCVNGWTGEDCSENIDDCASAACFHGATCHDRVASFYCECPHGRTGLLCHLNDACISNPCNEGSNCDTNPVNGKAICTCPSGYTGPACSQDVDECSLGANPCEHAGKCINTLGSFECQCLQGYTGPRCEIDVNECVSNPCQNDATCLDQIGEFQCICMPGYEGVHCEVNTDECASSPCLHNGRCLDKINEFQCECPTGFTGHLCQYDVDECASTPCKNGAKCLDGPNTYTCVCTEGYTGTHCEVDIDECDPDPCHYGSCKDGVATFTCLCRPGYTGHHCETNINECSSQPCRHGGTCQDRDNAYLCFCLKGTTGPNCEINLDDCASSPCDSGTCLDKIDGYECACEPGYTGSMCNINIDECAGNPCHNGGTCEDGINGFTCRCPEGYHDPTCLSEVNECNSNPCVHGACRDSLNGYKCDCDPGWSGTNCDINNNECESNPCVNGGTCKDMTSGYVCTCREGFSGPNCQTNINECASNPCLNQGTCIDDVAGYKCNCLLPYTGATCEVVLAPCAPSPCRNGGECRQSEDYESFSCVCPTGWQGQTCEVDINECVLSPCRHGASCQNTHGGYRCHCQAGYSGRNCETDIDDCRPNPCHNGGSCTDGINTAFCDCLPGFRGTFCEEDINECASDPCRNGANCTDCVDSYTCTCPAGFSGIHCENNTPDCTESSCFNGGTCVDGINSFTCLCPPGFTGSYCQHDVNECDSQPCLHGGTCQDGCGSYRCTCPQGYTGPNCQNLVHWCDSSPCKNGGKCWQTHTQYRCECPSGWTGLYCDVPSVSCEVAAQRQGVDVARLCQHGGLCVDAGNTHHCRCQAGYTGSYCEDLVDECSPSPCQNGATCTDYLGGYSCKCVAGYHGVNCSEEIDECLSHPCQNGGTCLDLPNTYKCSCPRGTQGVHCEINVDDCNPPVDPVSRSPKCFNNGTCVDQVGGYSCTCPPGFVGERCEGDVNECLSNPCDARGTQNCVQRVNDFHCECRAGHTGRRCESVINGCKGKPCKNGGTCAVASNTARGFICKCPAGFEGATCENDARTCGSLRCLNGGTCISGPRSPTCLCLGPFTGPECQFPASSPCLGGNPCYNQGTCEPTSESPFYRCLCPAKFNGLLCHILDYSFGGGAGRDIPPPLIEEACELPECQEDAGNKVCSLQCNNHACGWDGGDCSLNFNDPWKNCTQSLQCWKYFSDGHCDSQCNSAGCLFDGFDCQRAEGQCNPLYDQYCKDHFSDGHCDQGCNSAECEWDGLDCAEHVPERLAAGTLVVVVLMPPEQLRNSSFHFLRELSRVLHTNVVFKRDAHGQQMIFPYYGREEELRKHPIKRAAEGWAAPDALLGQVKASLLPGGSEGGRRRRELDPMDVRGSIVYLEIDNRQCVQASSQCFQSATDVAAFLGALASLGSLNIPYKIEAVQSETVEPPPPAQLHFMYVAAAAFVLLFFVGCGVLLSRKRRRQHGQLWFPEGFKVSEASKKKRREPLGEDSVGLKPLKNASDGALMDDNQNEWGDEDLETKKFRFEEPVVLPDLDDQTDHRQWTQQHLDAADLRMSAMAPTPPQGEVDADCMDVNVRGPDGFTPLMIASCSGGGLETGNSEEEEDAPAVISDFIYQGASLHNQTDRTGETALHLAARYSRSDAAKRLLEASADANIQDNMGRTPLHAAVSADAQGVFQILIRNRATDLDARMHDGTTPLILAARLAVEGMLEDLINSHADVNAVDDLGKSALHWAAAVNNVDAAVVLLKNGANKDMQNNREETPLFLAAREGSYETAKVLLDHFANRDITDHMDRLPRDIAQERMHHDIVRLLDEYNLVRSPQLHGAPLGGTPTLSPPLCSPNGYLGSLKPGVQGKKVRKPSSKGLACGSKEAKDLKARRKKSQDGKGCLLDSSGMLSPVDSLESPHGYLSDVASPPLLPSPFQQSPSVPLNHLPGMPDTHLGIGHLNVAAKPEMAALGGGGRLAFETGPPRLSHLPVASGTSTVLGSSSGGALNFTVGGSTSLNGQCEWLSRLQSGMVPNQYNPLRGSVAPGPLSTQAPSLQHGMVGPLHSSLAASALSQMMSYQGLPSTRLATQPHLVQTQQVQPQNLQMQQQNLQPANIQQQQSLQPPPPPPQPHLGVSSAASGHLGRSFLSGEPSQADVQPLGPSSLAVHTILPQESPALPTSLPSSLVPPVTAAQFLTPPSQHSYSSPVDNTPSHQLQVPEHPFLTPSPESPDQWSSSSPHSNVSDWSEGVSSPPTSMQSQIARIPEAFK", "UniProt P07355": "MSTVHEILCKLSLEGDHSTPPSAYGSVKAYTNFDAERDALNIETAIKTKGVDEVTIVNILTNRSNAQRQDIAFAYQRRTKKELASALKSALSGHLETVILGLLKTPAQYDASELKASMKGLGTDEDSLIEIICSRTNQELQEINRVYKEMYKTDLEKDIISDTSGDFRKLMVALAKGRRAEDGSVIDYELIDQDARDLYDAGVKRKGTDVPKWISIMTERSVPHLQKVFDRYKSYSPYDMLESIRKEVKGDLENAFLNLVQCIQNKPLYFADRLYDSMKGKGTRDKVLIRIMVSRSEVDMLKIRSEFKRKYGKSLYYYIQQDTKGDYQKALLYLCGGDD", "UniProt Q03135": "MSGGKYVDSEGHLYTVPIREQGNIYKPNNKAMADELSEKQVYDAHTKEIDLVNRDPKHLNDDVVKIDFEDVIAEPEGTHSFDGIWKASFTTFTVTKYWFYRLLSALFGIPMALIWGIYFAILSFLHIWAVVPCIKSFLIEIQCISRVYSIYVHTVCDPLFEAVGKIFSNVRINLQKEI"}, "source": "paper PMC12877406", "target": "Notch1 (human (endogenous in hdBECs)) (UniProt P46531)", "test": "co-IP; immunoprecipitation of endogenous Notch1 with primary antibody (1.5 ug per mg of lysate protein, 2 h, 4°C) and Protein A/G beads from hdBEC lysates (static or flow); IP lysis buffer pH 7.4, 25 mM Tris, 150 mM NaCl, 5 mM MgCl2, 1% Triton X-100; Western blot", "note": "No constants are given. Whether binding was seen depends on the method and setting. Binding seen in cells or lysates may run through a third protein. Some entries that bind do so weakly or less than the wild type.", "data": [{"substance": "annexin A2 (from UniProt P07355 1-339)", "values": [{"measurement": "binding", "value": "binds"}]}, {"substance": "caveolin-1 (from UniProt Q03135 1-178)", "values": [{"measurement": "binding", "value": "binds"}]}]}
